For experiment [1], the target named is T1, N-terminal STREP-tagged PSKH2 (human) (UniProt Q96QS6).
T1 sequence: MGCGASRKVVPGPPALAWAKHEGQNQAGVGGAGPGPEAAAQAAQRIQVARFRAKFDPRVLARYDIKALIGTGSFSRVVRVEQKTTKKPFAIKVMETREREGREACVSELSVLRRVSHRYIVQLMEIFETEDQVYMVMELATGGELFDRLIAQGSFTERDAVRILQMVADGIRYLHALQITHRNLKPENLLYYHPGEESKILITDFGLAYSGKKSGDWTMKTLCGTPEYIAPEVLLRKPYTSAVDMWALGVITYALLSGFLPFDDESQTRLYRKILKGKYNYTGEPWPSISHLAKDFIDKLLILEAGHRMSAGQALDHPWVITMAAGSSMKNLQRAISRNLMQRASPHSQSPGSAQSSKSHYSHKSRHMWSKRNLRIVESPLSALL
As to the kind of experiment: affinity purification with mass spectrometry; N- or C-terminal STREP-tagged PSKH2 isolated from HEK-293T cells in triplicate on Strep-TACTIN beads with DDM, eluted with 3C protease, LC-MS/MS, label-free quantification against an EGFP-transfected control.

The chains behind the UniProt entries cited, without tags or fusion partners. Residues count along the entry.
UniProt O60884: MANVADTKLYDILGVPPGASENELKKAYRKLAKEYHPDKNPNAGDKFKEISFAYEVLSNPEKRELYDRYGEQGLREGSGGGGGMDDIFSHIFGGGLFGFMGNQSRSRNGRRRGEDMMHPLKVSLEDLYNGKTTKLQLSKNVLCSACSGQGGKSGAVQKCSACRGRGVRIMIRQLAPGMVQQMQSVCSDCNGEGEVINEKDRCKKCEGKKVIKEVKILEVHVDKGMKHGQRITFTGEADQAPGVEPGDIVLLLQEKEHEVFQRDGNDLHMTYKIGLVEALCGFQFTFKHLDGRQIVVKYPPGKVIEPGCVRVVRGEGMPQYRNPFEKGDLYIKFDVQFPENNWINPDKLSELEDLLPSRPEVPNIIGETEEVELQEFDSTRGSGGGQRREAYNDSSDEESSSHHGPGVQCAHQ
UniProt Q8WW22: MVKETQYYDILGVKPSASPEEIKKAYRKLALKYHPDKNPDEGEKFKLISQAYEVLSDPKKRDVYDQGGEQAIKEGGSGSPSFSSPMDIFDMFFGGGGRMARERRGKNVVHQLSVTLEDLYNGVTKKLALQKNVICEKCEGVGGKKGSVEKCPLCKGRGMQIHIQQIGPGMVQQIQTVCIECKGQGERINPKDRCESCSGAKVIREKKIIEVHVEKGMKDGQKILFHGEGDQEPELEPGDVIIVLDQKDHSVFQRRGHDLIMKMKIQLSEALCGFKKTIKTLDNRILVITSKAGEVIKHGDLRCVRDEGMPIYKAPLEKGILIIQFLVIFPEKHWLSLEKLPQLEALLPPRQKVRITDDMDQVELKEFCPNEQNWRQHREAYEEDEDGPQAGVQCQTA
UniProt P08238: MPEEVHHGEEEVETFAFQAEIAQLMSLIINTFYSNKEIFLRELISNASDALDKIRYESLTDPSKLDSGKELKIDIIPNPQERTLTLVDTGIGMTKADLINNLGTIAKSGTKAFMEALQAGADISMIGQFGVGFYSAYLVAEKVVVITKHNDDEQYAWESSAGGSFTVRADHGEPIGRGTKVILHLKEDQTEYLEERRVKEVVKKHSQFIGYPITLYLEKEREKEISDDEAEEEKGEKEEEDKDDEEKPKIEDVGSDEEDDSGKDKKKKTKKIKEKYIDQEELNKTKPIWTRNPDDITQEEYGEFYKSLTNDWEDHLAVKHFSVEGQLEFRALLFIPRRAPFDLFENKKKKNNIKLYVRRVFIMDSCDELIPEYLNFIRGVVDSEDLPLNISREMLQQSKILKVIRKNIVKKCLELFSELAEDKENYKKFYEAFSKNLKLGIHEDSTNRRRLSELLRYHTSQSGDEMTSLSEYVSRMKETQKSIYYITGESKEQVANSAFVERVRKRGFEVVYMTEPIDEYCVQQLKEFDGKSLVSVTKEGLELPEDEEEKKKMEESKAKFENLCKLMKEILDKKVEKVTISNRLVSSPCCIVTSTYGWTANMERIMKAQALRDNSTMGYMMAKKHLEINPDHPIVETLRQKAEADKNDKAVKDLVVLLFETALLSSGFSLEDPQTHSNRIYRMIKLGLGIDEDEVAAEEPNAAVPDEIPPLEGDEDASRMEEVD
UniProt P11142: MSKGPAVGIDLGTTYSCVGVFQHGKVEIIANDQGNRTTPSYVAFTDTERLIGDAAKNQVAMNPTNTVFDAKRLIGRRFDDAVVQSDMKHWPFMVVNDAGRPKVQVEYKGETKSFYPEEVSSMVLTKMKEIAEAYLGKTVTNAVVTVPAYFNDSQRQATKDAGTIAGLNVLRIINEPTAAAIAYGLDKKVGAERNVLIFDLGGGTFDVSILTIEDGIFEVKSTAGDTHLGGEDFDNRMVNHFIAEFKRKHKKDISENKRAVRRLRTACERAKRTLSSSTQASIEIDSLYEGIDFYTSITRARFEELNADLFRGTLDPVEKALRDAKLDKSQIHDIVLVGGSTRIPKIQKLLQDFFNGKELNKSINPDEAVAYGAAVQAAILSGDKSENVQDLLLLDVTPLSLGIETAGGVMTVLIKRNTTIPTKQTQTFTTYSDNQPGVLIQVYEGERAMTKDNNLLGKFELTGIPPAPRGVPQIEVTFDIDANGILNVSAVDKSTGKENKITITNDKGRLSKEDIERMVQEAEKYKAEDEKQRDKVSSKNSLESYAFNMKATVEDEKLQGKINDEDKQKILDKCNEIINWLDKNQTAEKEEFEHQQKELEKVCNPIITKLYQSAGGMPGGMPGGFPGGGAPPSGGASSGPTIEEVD
UniProt P38646, residues 47-679: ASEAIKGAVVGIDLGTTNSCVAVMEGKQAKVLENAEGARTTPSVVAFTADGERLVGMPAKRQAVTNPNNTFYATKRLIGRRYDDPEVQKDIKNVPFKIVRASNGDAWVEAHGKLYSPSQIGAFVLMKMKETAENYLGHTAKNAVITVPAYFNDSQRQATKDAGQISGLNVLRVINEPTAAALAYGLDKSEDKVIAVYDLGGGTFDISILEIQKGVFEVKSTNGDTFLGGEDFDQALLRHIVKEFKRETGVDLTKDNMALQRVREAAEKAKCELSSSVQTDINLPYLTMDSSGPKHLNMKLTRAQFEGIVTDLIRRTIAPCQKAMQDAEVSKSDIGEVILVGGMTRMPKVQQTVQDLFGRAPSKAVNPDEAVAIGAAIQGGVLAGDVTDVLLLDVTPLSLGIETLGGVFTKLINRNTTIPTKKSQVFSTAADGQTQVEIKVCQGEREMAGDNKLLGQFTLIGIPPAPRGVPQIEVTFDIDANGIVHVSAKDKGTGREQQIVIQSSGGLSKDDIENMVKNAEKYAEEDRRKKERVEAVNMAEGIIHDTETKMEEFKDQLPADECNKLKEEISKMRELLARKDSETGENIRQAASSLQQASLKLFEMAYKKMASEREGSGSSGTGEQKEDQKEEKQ
UniProt Q8TEM1, residues 27-1887: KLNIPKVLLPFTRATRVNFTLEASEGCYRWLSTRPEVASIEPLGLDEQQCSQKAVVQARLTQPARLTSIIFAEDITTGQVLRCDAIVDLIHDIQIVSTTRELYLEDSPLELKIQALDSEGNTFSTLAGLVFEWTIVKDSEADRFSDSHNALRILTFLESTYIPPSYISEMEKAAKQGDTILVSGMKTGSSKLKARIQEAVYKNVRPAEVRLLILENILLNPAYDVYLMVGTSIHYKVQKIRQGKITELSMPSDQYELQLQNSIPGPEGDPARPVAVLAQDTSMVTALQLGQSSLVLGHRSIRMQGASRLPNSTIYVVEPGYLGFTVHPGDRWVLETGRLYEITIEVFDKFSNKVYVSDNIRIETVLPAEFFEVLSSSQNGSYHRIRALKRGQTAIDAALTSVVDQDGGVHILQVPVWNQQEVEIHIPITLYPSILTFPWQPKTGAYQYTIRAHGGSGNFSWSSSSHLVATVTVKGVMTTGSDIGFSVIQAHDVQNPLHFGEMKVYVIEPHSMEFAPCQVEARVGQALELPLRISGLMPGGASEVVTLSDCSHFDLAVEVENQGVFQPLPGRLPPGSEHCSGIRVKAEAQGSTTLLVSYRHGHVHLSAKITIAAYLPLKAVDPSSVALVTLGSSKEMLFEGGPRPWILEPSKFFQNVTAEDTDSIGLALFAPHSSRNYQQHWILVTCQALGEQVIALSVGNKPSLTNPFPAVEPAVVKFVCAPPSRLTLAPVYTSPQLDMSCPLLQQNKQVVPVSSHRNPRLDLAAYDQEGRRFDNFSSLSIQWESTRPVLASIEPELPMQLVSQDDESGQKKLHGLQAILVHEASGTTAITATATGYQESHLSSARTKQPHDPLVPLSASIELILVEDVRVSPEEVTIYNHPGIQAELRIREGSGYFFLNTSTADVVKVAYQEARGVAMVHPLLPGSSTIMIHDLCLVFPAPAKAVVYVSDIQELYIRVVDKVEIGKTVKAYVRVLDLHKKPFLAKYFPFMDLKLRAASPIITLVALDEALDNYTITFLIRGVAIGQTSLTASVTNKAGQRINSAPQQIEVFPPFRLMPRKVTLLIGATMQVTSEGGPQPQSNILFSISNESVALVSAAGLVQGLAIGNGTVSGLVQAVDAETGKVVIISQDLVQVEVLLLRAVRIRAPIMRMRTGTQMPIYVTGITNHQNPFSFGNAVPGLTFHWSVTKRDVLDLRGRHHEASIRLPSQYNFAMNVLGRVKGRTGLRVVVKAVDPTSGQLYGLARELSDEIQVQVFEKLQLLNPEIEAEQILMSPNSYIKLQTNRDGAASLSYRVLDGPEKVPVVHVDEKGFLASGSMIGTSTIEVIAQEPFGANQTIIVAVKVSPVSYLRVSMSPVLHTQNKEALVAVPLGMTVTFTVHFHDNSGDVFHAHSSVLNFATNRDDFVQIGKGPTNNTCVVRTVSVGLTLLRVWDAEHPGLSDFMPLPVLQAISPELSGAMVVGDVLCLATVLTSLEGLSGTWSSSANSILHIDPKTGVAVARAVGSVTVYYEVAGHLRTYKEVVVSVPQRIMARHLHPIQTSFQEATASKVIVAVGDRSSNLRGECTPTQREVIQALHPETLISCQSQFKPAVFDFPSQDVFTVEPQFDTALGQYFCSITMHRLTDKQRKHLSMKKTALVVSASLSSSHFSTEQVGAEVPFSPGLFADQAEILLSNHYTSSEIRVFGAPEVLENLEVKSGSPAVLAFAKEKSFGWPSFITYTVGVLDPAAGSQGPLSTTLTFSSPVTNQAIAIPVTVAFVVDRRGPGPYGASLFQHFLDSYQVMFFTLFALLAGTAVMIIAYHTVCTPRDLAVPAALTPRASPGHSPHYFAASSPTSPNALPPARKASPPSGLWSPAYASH
UniProt Q3ZCQ8, residues 45-353: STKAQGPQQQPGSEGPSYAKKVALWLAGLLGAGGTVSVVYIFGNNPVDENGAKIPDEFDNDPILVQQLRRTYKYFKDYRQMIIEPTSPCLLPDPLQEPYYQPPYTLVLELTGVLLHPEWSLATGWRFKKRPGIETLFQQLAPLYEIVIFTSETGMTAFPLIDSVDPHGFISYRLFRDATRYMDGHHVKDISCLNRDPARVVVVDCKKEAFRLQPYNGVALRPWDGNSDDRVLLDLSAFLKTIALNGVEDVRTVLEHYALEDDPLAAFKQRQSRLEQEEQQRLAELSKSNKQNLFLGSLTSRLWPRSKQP
UniProt A6NIH7: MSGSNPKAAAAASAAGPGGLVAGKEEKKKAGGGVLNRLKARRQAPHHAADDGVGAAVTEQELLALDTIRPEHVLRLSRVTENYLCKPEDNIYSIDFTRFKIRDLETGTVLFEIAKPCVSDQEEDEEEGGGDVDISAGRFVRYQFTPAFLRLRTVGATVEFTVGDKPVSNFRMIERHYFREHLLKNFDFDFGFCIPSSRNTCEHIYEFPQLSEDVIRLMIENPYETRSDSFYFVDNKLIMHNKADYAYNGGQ

The target of experiment [2] is T2, C-terminal STREP-tagged PSKH2 (human) (UniProt Q96QS6).
T2 sequence: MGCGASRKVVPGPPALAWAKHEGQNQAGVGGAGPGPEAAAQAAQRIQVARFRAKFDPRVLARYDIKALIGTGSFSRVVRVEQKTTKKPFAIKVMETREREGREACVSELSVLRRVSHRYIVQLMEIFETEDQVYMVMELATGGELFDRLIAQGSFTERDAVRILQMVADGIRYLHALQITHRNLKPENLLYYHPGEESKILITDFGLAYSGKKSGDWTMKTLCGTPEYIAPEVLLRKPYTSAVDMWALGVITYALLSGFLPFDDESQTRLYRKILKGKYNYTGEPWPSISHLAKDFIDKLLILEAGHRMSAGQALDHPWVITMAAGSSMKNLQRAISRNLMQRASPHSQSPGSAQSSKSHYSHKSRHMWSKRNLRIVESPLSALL
Described as above.

These are yes or no findings as the source states them, for the method shown. Binding seen in cells or lysates may run through a third protein. These calls come from enrichment with a bait or labelling near it, and not all partners need be listed. Sequences can lack the tags named with a protein.

From article PMC9988210 come the findings set out here.

Regarding CDC25C (human (endogenous in HEK-293T)), the binding entry in experiment [1] and in experiment [2] was “binds” in each case.

DNAJA1 (from UniProt P31689 1-397): the binding result in experiment [1] and in experiment [2] was “binds” each time.

As to DNAJA2 (from UniProt O60884 1-412), the binding result in experiment [1] and in experiment [2] was “binds” in each case.

Turning to DNAJA4 (from UniProt Q8WW22 1-397), the binding entry in experiment [1] and in experiment [2] was “binds” in each case.

Turning to HSP90β (from UniProt P08238 1-724), the binding result in experiment [1] and in experiment [2] was “binds” throughout.

For the molecule HSPA8 (from UniProt P11142 1-646), the binding entry in experiment [1] and in experiment [2] was “binds” in each case.

Take HSPA9 (from UniProt P38646 47-679): the binding result in experiment [1] and in experiment [2] was “binds” throughout.

On to NUP210 (from UniProt Q8TEM1 27-1887), for which the binding result in experiment [1] and in experiment [2] was “binds” each time.

For the molecule TIMM50 (from UniProt Q3ZCQ8 45-353), the binding result in experiment [1] and in experiment [2] was “binds” throughout.

On to UNC119B (from UniProt A6NIH7 1-251), for which the binding result in experiment [2] is on record as “binds”.

B1: Cdc37 (protein, UniProt Q16543 1-378)
chain: MVDYSVWDHIEVSDDEDETHPNIDTASLFRWRHQARVERMEQFQKEKEELDRGCRECKRKVAECQRKLKELEVAEGGKAELERLQAEAQQLRKEERSWEQKLEEMRKKEKSMPWNVDTLSKDGFSKSMVNTKPEKTEEDSEEVREQKHKTFVEKYEKQIKHFGMLRRWDDSQKYLSDNVHLVCEETANYLVIWCIDLEVEEKCALMEQVAHQTIVMQFILELAKSLKVDPRACFRQFFTKIKTADRQYMEGFNDELEAFKERVRGRAKLRIEKAMKEYEEEERKKRLGPGGLDPVEVYESLPEELQKCFDVKDVQMLQDAISKMDPTDAKYHMQRCIDSGLWVPNSKASEAKEGEEAGPGDPLLEAVPKTGDEKDVSV
On to B1, for which the binding result in experiment [1] and in experiment [2] was “binds” in each case.

B2: TOMM40 (protein, UniProt O96008 1-361)
chain: MGNVLAASSPPAGPPPPPAPALVGLPPPPPSPPGFTLPPLGGSLGAGTSTSRSSERTPGAATASASGAAEDGACGCLPNPGTFEECHRKCKELFPIQMEGVKLTVNKGLSNHFQVNHTVALSTIGESNYHFGVTYVGTKQLSPTEAFPVLVGDMDNSGSLNAQVIHQLGPGLRSKMAIQTQQSKFVNWQVDGEYRGSDFTAAVTLGNPDVLVGSGILVAHYLQSITPCLALGGELVYHRRPGEEGTVMSLAGKYTLNNWLATVTLGQAGMHATYYHKASDQLQVGVEFEASTRMQDTSVSFGYQLDLPKANLLFKGSVDSNWIVGATLEKKLPPLPLTLALGAFLNHRKNKFQCGFGLTIG
For the molecule B2, the binding entry in experiment [1] and in experiment [2] was “binds” each time.

B3: SLC25A6 (protein, UniProt P12236 1-298)
chain: MTEQAISFAKDFLAGGIAAAISKTAVAPIERVKLLLQVQHASKQIAADKQYKGIVDCIVRIPKEQGVLSFWRGNLANVIRYFPTQALNFAFKDKYKQIFLGGVDKHTQFWRYFAGNLASGGAAGATSLCFVYPLDFARTRLAADVGKSGTEREFRGLGDCLVKITKSDGIRGLYQGFSVSVQGIIIYRAAYFGVYDTAKGMLPDPKNTHIVVSWMIAQTVTAVAGVVSYPFDTVRRRMMMQSGRKGADIMYTGTVDCWRKIFRDEGGKAFFKGAWSNVLRGMGGAFVLVLYDELKKVI
In the case of B3, the binding result in experiment [1] and in experiment [2] was “binds” throughout.

B4: Geranylgeranyl transferase type-2 subunit beta (RABGGTB) (protein, UniProt P53611 1-331)
chain: MGTPQKDVIIKSDAPDTLLLEKHADYIASYGSKKDDYEYCMSEYLRMSGIYWGLTVMDLMGQLHRMNREEILAFIKSCQHECGGISASIGHDPHLLYTLSAVQILTLYDSINVIDVNKVVEYVKGLQKEDGSFAGDIWGEIDTRFSFCAVATLALLGKLDAINVEKAIEFVLSCMNFDGGFGCRPGSESHAGQIYCCTGFLAITSQLHQVNSDLLGWWLCERQLPSGGLNGRPEKLPDVCYSWWVLASLKIIGRLHWIDREKLRNFILACQDEETGGFADRPGDMVDPFHTLFGIAGLSLLGEEQIKPVNPVFCMPEEVLQRVNVQPELVS
For the molecule B4, the binding entry in experiment [2] was “binds”.

B5: NUP160 (protein, UniProt Q12769 1-1436)
chain: MLHLSAAPPAPPPEVTATARPCLCSVGRRGDGGKMAAAGALERSFVELSGAERERPRHFREFTVCSIGTANAVAGAVKYSESAGGFYYVESGKLFSVTRNRFIHWKTSGDTLELMEESLDINLLNNAIRLKFQNCSVLPGGVYVSETQNRVIILMLTNQTVHRLLLPHPSRMYRSELVVDSQMQSIFTDIGKVDFTDPCNYQLIPAVPGISPNSTASTAWLSSDGEALFALPCASGGIFVLKLPPYDIPGMVSVVELKQSSVMQRLLTGWMPTAIRGDQSPSDRPLSLAVHCVEHDAFIFALCQDHKLRMWSYKEQMCLMVADMLEYVPVKKDLRLTAGTGHKLRLAYSPTMGLYLGIYMHAPKRGQFCIFQLVSTESNRYSLDHISSLFTSQETLIDFALTSTDIWALWHDAENQTVVKYINFEHNVAGQWNPVFMQPLPEEEIVIRDDQDPREMYLQSLFTPGQFTNEALCKALQIFCRGTERNLDLSWSELKKEVTLAVENELQGSVTEYEFSQEEFRNLQQEFWCKFYACCLQYQEALSHPLALHLNPHTNMVCLLKKGYLSFLIPSSLVDHLYLLPYENLLTEDETTISDDVDIARDVICLIKCLRLIEESVTVDMSVIMEMSCYNLQSPEKAAEQILEDMITIDVENVMEDICSKLQEIRNPIHAIGLLIREMDYETEVEMEKGFNPAQPLNIRMNLTQLYGSNTAGYIVCRGVHKIASTRFLICRDLLILQQLLMRLGDAVIWGTGQLFQAQQDLLHRTAPLLLSYYLIKWGSECLATDVPLDTLESNLQHLSVLELTDSGALMANRFVSSPQTIVELFFQEVARKHIISHLFSQPKAPLSQTGLNWPEMITAITSYLLQLLWPSNPGCLFLECLMGNCQYVQLQDYIQLLHPWCQVNVGSCRFMLGRCYLVTGEGQKALECFCQAASEVGKEEFLDRLIRSEDGEIVSTPRLQYYDKVLRLLDVIGLPELVIQLATSAITEAGDDWKSQATLRTCIFKHHLDLGHNSQAYEALTQIPDSSRQLDCLRQLVVVLCERSQLQDLVEFPYVNLHNEVVGIIESRARAVDLMTHNYYELLYAFHIYRHNYRKAGTVMFEYGMRLGREVRTLRGLEKQGNCYLAALNCLRLIRPEYAWIVQPVSGAVYDRPGASPKRNHDGECTAAPTNRQIEILELEDLEKECSLARIRLTLAQHDPSAVAVAGSSSAEEMVTLLVQAGLFDTAISLCQTFKLPLTPVFEGLAFKCIKLQFGGEAAQAEAWAWLAANQLSSVITTKESSATDEAWRLLSTYLERYKVQNNLYHHCVINKLLSHGVPLPNWLINSYKKVDAAELLRLYLNYDLLEEAVDLVSEYVDAVLGKGHQYFGIEFPLSATAPMVWLPYSSIDQLLQALGENSANSHNIALSQKILDKLEDYQQKVDKATRDLLYRRTL
Take B5: the binding entry in experiment [1] and in experiment [2] was “binds” throughout.

B6: RANBP3 (protein, UniProt Q9H6Z4 1-567)
chain: MADLANEEKPAIAPPVFVFQKDKGQKSPAEQKNLSDSGEEPRGEAEAPHHGTGHPESAGEHALEPPAPAGASASTPPPPAPEAQLPPFPRELAGRSAGGSSPEGGEDSDREDGNYCPPVKRERTSSLTQFPPSQSEERSSGFRLKPPTLIHGQAPSAGLPSQKPKEQQRSVLRPAVLQAPQPKALSQTVPSSGTNGVSLPADCTGAVPAASPDTAAWRSPSEAADEVCALEEKEPQKNESSNASEEEACEKKDPATQQAFVFGQNLRDRVKLINESVDEADMENAGHPSADTPTATNYFLQYISSSLENSTNSADASSNKFVFGQNMSERVLSPPKLNEVSSDANRENAAAESGSESSSQEATPEKESLAESAAAYTKATARKCLLEKVEVITGEEAESNVLQMQCKLFVFDKTSQSWVERGRGLLRLNDMASTDDGTLQSRLVMRTQGSLRLILNTKLWAQMQIDKASEKSIRITAMDTEDQGVKVFLISASSKDTGQLYAALHHRILALRSRVEQEQEAKMPAPEPGAAPSNEEDDSDDDDVLAPSGATAAGAGDEGDGQTTGST
As for B6, the binding entry in experiment [1] and in experiment [2] was “binds” each time.

B7: TIMM23 (protein, UniProt O14925 1-209)
chain: MEGGGGSGNKTTGGLAGFFGAGGAGYSHADLAGVPLTGMNPLSPYLNVDPRYLVQDTDEFILPTGANKTRGRFELAFFTIGGCCMTGAAFGAMNGLRLGLKETQNMAWSKPRNVQILNMVTRQGALWANTLGSLALLYSAFGVIIEKTRGAEDDLNTVAAGTMTGMLYKCTGGLRGIARGGLTGLTLTSLYALYNNWEHMKGSLLQQSL
Regarding B7, the binding entry in experiment [1] and in experiment [2] was “binds” in each case.
